Reference: PubChem BioAssay AID2685 (National Center for Advancing Translational Sciences (NCATS), 2010)
The list shows a part of the results. Further columns of the screen follow, without active or inactive calls. The list favours compounds with an active or inconclusive main result. Potencies come from curve fits of mixed quality, noted in brackets.

Experiment: qHTS Assay for Lipid Storage Modulators in Drosophila S3 Cells;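 as to cell number change: cells counted by Cell Tracker Red CMTPX staining in the red channel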
Conditions: BODIPY lipid droplet fluorescence, 18-24 h; for cell number change: measured here: cell count max response, cells fed with added oleic acid
Procedure, shortened: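 Drosophila S3 cells loaded with oleic acid (400 uM, as added) and compounds at several concentrations; lipid droplets imaged by 488-nm laser-scanning cytometry, 500–530 nm intensity and object ratio to cell channel. Percent activity normalized to 20 uM Triacsin C.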

[1] = measured here: cell number channel AC50, cells fed with added oleic acid
[2] = measured here: lipid fluorescence (Fed channel) AC50, cells fed with added oleic acid

**Q.** Which results are given for COc1ccc(OCC(O)CN(C)C(=O)/C=C/c2cccc([N+](=O)[O-])c2)cc1 (stereo not drawn)?
**A.** cell number change: -39.2%; AC50 [1]: 5.8 µM [falling, partial curve]

**Q.** For CCOc1ccccc1N1CCN(C(=O)c2csc(C)c2CC)CC1, which cell number change is on record?
**A.** 61.5%

**Q.** And the AC50 [1]?
**A.** 0.517 µM [rising, full curve]

**Q.** And the AC50 [2]?
**A.** 0.731 µM [rising, full curve]

**Q.** With CCOC(=O)N1CCN(C(=O)c2ccc3c(c2)NC(=O)/C(=C/c2ccccc2)S3)CC1 as the compound, how does the cell number change read?
**A.** -31.1%

**Q.** What about the AC50 [1] of the same compound?
**A.** 18.4 µM [falling, single point]

**Q.** With Cc1ccc([C@@H]2CC=C(C(=O)O)[C@H](c3ccccc3)N2S(=O)(=O)c2ccc(C)cc2)cc1 as the compound, how does the cell number change read?
**A.** -7.19%

**Q.** What about the AC50 [2] of the same compound?
**A.** 0.146 µM [rising, full curve, poor fit]

**Q.** With O=S(=O)(N1CCCCCC1)N1CCN(S(=O)(=O)N2CCCCC2)CC1 as the compound, how does the cell number change read?
**A.** -87.2%

**Q.** And the AC50 [1]?
**A.** 23.1 µM [falling, single point]

**Q.** And the AC50 [2]?
**A.** 0.92 µM [falling, partial curve]

**Q.** Which cell number change does the source give for O=C(CN1c2ccccc2Sc2ccccc21)N/N=C/c1ccc(Cl)cc1Cl here?
**A.** -0.774%

**Q.** What about the AC50 [1] of the same compound?
**A.** 0.082 µM [rising, partial curve, poor fit]

**Q.** And the AC50 [2]?
**A.** 0.0731 µM [rising, partial curve, poor fit]

**Q.** Which cell number change does the source give for CNC(=O)COc1coc(CN2CCN(c3ccc(F)cc3)CC2)cc1=O here?
**A.** 12.5%

**Q.** And the AC50 [2]?
**A.** 29.1 µM [rising, single point]

**Q.** Which cell number change does the source give for COc1cc(NC(=O)CCCC(=O)OCC(F)(F)C(F)F)nc(OC)n1 here?
**A.** 18.2%

**Q.** What about the AC50 [2] of the same compound?
**A.** 4.11 µM [rising, single point]

**Q.** With Cc1cc(C)c(S(=O)(=O)N2CCN(C(=O)N3CCCCC3)CC2)c(C)c1 as the compound, how does the cell number change read?
**A.** -2.1%

**Q.** With O=C(NCC1CCN(c2ccc(S(=O)(=O)N3CCOCC3)cc2)CC1)c1cccc(Cl)c1 as the compound, how does the cell number change read?
**A.** 32.3%

**Q.** What about the AC50 [1] of the same compound?
**A.** 9.2 µM [rising, single point]

**Q.** And the AC50 [2]?
**A.** 3.26 µM [rising, single point]

**Q.** Which cell number change does the source give for COCCCNC(=S)Nc1ccc(C)cc1 here?
**A.** 4.26%

**Q.** What about the AC50 [2] of the same compound?
**A.** 0.103 µM [falling, partial curve, poor fit]

**Q.** With CC(O)(CS(=O)(=O)Cc1ccccc1Cl)C(=O)Nc1cccc(C(F)(F)F)c1 (stereo not drawn) as the compound, how does the cell number change read?
**A.** 10.1%

**Q.** Which cell number change does the source give for CC(C)(C)Nc1cccccc1=O here?
**A.** -9.98%

**Q.** And the AC50 [2]?
**A.** 0.206 µM [falling, full curve]

**Q.** With CN(C)c1nc(N)nc(CSc2nnnn2-c2ccc(C(=O)O)cc2)n1 as the compound, how does the cell number change read?
**A.** 11.6%

**Q.** What about the AC50 [2] of the same compound?
**A.** 20.6 µM [falling, single point]

**Q.** What does the source list for Cc1cccc(CN2CCNC2=O)c1?
**A.** cell number change: 0.101%; AC50 [2]: 6.51 µM [falling, single point]

**Q.** With COc1cc(/C=N/NC(=O)C(N)=O)ccc1OC(=O)c1cccs1 as the compound, how does the AC50 [2] read?
**A.** 5.8 µM [rising, partial curve]

**Q.** Which cell number change does the source give for O=C(NCc1cn2ccccc2n1)c1ccccc1 here?
**A.** 25.4%

**Q.** And the AC50 [2]?
**A.** 6.51 µM [rising, single point]

**Q.** What does the source list for O=C(CSc1nc(O)cc(=O)n1-c1ccccc1)Nc1ccc(Br)cn1?
**A.** cell number change: 11.5%; AC50 [1]: 6.51 µM [falling, single point]; AC50 [2]: 2.59 µM [falling, partial curve]

**Q.** For Oc1ccccc1N1CCN(c2nc(-c3cccs3)nc3ccccc23)CC1, which cell number change is on record?
**A.** 6.85%

**Q.** What about the AC50 [2] of the same compound?
**A.** 0.00461 µM [rising, full curve, poor fit]

**Q.** With COc1cccc(C(=O)Nc2ccc(NC(=O)C3CC3)nc2)c1 as the compound, how does the cell number change read?
**A.** 18.5%

**Q.** And the AC50 [2]?
**A.** 0.58 µM [falling, single point]

**Q.** Which results are given for CCn1cc(C(=O)N2CCN(c3ccccc3)CC2)c(=O)c2cc(S(=O)(=O)N3CCOCC3)ccc21?
**A.** cell number change: 6.19%; AC50 [2]: 29.1 µM [rising, single point]

**Q.** For Cc1nn(C(C)(C)C)c(C)c1/C=N/OC(=O)Nc1ccc(Cl)cc1, which cell number change is on record?
**A.** -27%

**Q.** And the AC50 [2]?
**A.** 10.3 µM [falling, partial curve, poor fit]

**Q.** Which cell number change does the source give for O=C(Nc1cccc(-c2nc3ccccc3[nH]2)c1)c1ccco1 here?
**A.** -5.35%

**Q.** What about the AC50 [2] of the same compound?
**A.** 1.3 µM [rising, full curve]

**Q.** With Cc1ccc(S(=O)(=O)NCC(=O)OCC(=O)Nc2cccc(S(=O)(=O)NC3=NCCCCC3)c2)cc1C as the compound, how does the cell number change read?
**A.** 13.3%

**Q.** Which cell number change does the source give for O=C(NCc1cccnc1)c1ccccc1-c1ccccc1 here?
**A.** 0.465%

**Q.** For Cc1ccc(C(=O)NCCn2cc(SCC(=O)Nc3nnc(C)s3)c3ccccc32)cc1, which cell number change is on record?
**A.** -23.4%

**Q.** What about the AC50 [2] of the same compound?
**A.** 3.26 µM [rising, full curve, poor fit]

**Q.** For Cc1cc2c(cc1C)CSC(c1ccccc1OC(=O)C(C)(C)C)SC2, which cell number change is on record?
**A.** 120%

**Q.** What about the AC50 [1] of the same compound?
**A.** 29.1 µM [rising, partial curve, poor fit]

**Q.** What does the source list for CCOC(=O)/C(C#N)=C/c1ccc(OCC(=O)Nc2ccc(C)c(C)c2)c(OC)c1?
**A.** cell number change: 10.5%; AC50 [2]: 1.84 µM [rising, partial curve]

**Q.** With C=CCn1c(C)nnc1SCC(=O)Nc1nc(C)c(C(=O)N(C)C)s1 as the compound, how does the cell number change read?
**A.** 24.6%

**Q.** Which results are given for CCCCOc1ccc(-c2csc(N)n2)cc1[N+](=O)[O-]?
**A.** cell number change: -13.7%; AC50 [2]: 29.1 µM [rising, single point]

**Q.** Which cell number change does the source give for COc1ccc(OC)c(-n2nnnc2SCC(=O)NCc2ccc3c(c2)OCO3)c1 here?
**A.** 28.6%

**Q.** What about the AC50 [1] of the same compound?
**A.** 0.651 µM [rising, single point]

**Q.** And the AC50 [2]?
**A.** 1.46 µM [rising, full curve]

**Q.** What does the source list for O=C(Nc1cccc(Cl)c1)c1nc[nH]c1C(=O)N1CCc2ccccc2C1?
**A.** cell number change: -53.4%; AC50 [1]: 4.11 µM [falling, single point]; AC50 [2]: 9.2 µM [falling, single point]

**Q.** With COc1ccc(OC)c(C(=O)N2CCC(CCC(=O)NC3CC3)CC2)c1 as the compound, how does the cell number change read?
**A.** 6.27%

**Q.** And the AC50 [2]?
**A.** 6.51 µM [rising, single point]

**Q.** For CCOc1ccc(CN2CCN(CCCn3cccn3)CC2CCO)cc1 (stereo not drawn), which cell number change is on record?
**A.** 18.9%

**Q.** What about the AC50 [2] of the same compound?
**A.** 0.00517 µM [rising, full curve, poor fit]

**Q.** For CCS(=O)(=O)N1CCN(C(=O)c2ccccc2)CC1, which cell number change is on record?
**A.** 40.4%

**Q.** What about the AC50 [1] of the same compound?
**A.** 16.4 µM [rising, single point]

**Q.** Which cell number change does the source give for CC(=O)c1cccc(N(CC(=O)NCCc2ccccc2)C(=O)c2csnn2)c1 here?
**A.** 0.427%

**Q.** With CCOc1ccccc1NC(=O)c1ccc(S(=O)(=O)N2CCCCC2)cc1 as the compound, how does the cell number change read?
**A.** 4.58%

**Q.** For S=c1[nH]nc(C2CCCCC2)n1/N=C/c1ccc(Cl)cc1, which cell number change is on record?
**A.** 13.9%

**Q.** And the AC50 [2]?
**A.** 6.51 µM [falling, single point]

**Q.** With COc1ccc(N2CC(C(=O)NNC(=O)c3ccc(Br)cc3)CC2=O)c(OC)c1 (stereo not drawn) as the compound, how does the cell number change read?
**A.** 0.442%

**Q.** What about the AC50 [1] of the same compound?
**A.** 0.651 µM [falling, full curve, poor fit]

**Q.** What about the AC50 [2] of the same compound?
**A.** 0.731 µM [falling, full curve]
